{
  "source": "the supplement of paper PMC8728848",
  "binders": {"B1": {"name": "OS9-MRH (Homo sapiens), Q13438 (protein)", "chain": "IPELLSPMRDAPCLLKTKDWWTYEFCYGRHIQQYHMEDSEIKGEVLYLGYYQSAFDWDDETAKASKQHRLKRYHSQTYGNGSKCDLNGRPREAEVRFLCDEGAGISGDYIDRVDEPLSCSYVLTIRTPRLCPHPLLRPPPSAAPQAI"}},
  "experiment_in_all_cases": "glycan array binding signal (z-score within array); higher = stronger binding",
  "conditions_in_all_cases": "glycan notation: IUPAC condensed, linker removed",
  "key": {"[1]": {"biological_target": "Fuc(a1-2)Gal(b1-4)GlcNAc(b1-3)Gal(b1-4)GlcNAc(b1-2)Man(a1-3)[Fuc(a1-2)Gal(b1-4)GlcNAc(b1-3)Gal(b1-4)GlcNAc(b1-2)Man(a1-6)]Man(b1-4)GlcNAc(b1-4)GlcNAc", "in_short": "(§1)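 Glycan array data came from 3228 arrays in the Consortium for Functional Glycomics database, and only arrays with an available protein sequence were kept. Glycan names were put into IUPAC-condensed notation, and columns mapping to the same glycan were averaged. The binding signal is a within-array Z-score, averaged across arrays of one protein sequence run at different concentrations or buffers and across linkers. A negative Z-score can be read as non-binding.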"}, "[2]": {"biological_target": "Fuc(a1-2)Gal(b1-4)GlcNAc(b1-3)Gal(b1-4)GlcNAc(b1-3)Gal(b1-4)GlcNAc", "in_short": "as §1"}, "[3]": {"biological_target": "Fuc(a1-2)Gal(b1-4)GlcNAc(b1-3)GalNAc", "in_short": "as §1"}, "[4]": {"biological_target": "Fuc(a1-2)Gal(b1-4)GlcNAc(b1-3)[Fuc(a1-2)Gal(b1-4)GlcNAc(b1-6)]GalNAc", "in_short": "as §1"}, "[5]": {"biological_target": "Fuc(a1-2)Gal(b1-4)GlcNAc(b1-3)[Fuc(a1-3)[Gal(b1-4)]GlcNAc(b1-6)]Gal(b1-4)Glc", "in_short": "as §1"}, "[6]": {"biological_target": "Fuc(a1-2)Gal(b1-4)GlcNAc(b1-6)GalNAc", "in_short": "as §1"}, "[7]": {"biological_target": "Fuc(a1-2)Gal(b1-4)GlcNAc6S", "in_short": "as §1"}, "[8]": {"biological_target": "Fuc(a1-2)Gal(b1-4)[Fuc(a1-3)]GlcNAc", "in_short": "as §1"}, "[9]": {"biological_target": "Fuc(a1-2)Gal(b1-4)[Fuc(a1-3)]GlcNAc(b1-2)Man(a1-3)[Fuc(a1-2)Gal(b1-4)[Fuc(a1-3)]GlcNAc(b1-2)Man(a1-6)]Man(b1-4)GlcNAc(b1-4)[Fuc(a1-6)]GlcNAc", "in_short": "as §1"}, "[10]": {"biological_target": "Fuc(a1-2)Gal(b1-4)[Fuc(a1-3)]GlcNAc(b1-2)[Fuc(a1-2)Gal(b1-4)[Fuc(a1-3)]GlcNAc(b1-4)]Man(a1-3)[Fuc(a1-2)Gal(b1-4)[Fuc(a1-3)]GlcNAc(b1-2)Man(a1-6)]Man(b1-4)GlcNAc(b1-4)GlcNAc", "in_short": "as §1"}, "[11]": {"biological_target": "Fuc(a1-2)Gal(b1-4)[Fuc(a1-3)]GlcNAc(b1-3)Gal(b1-4)[Fuc(a1-3)]GlcNAc", "in_short": "as §1"}, "[12]": {"biological_target": "Fuc(a1-2)Gal(b1-4)[Fuc(a1-3)]GlcNAc(b1-3)Gal(b1-4)[Fuc(a1-3)]GlcNAc(b1-3)Gal(b1-4)[Fuc(a1-3)]GlcNAc", "in_short": "as §1"}, "[13]": {"biological_target": "Fuc(a1-2)Gal(b1-4)[Fuc(a1-3)]GlcNAc(b1-3)GalNAc", "in_short": "as §1"}, "[14]": {"biological_target": "Fuc(a1-2)Gal(b1-4)[Fuc(a1-3)]GlcNAc(b1-3)[Neu5Ac(a2-6)Gal(b1-4)GlcNAc(b1-6)]Gal(b1-4)Glc", "in_short": "as §1"}, "[15]": {"biological_target": "Fuc(a1-2)Gal3S(b1-4)GlcNAc", "in_short": "as §1"}, "[16]": {"biological_target": "Fuc(a1-2)Gal6S(b1-3)GlcNAc", "in_short": "as §1"}, "[17]": {"biological_target": "Fuc(a1-2)Gal6S(b1-3)GlcNAc6S", "in_short": "as §1"}, "[18]": {"biological_target": "Fuc(a1-2)Gal6S(b1-4)Glc", "in_short": "as §1"}, "[19]": {"biological_target": "Fuc(a1-2)Gal6S(b1-4)Glc6S", "in_short": "as §1"}, "[20]": {"biological_target": "Fuc(a1-2)[Gal(a1-3)]Gal", "in_short": "as §1"}, "[21]": {"biological_target": "Fuc(a1-2)[Gal(a1-3)]Gal(b1-3)GalNAc", "in_short": "as §1"}, "[22]": {"biological_target": "Fuc(a1-2)[Gal(a1-3)]Gal(b1-3)GalNAc(b1-3)Gal(a1-4)Gal(b1-4)Glc", "in_short": "as §1"}, "[23]": {"biological_target": "Fuc(a1-2)[Gal(a1-3)]Gal(b1-3)GlcNAc", "in_short": "as §1"}, "[24]": {"biological_target": "Fuc(a1-2)[Gal(a1-3)]Gal(b1-3)GlcNAc(b1-2)Man(a1-3)[Fuc(a1-2)[Gal(a1-3)]Gal(b1-3)GlcNAc(b1-2)Man(a1-6)]Man(b1-4)GlcNAc(b1-4)GlcNAc", "in_short": "as §1"}, "[25]": {"biological_target": "Fuc(a1-2)[Gal(a1-3)]Gal(b1-3)GlcNAc(b1-2)Man(a1-3)[Fuc(a1-2)[Gal(a1-3)]Gal(b1-3)GlcNAc(b1-2)Man(a1-6)]Man(b1-4)GlcNAc(b1-4)[Fuc(a1-6)]GlcNAc", "in_short": "as §1"}, "[26]": {"biological_target": "Fuc(a1-2)[Gal(a1-3)]Gal(b1-3)GlcNAc(b1-3)GalNAc", "in_short": "as §1"}, "[27]": {"biological_target": "Fuc(a1-2)[Gal(a1-3)]Gal(b1-3)GlcNAc(b1-6)GalNAc", "in_short": "as §1"}, "[28]": {"biological_target": "Fuc(a1-2)[Gal(a1-3)]Gal(b1-4)Glc", "in_short": "as §1"}, "[29]": {"biological_target": "Fuc(a1-2)[Gal(a1-3)]Gal(b1-4)GlcNAc", "in_short": "as §1"}, "[30]": {"biological_target": "Fuc(a1-2)[Gal(a1-3)]Gal(b1-4)GlcNAc(b1-2)Man", "in_short": "as §1"}},
  "note": "The list shows a part of the results.",
  "data": [
    {"binder": "B1", "values": [
      {"measurement": "glycan array binding signal (z-score)", "setting": "[1]", "result": -0.256},
      {"measurement": "glycan array binding signal (z-score)", "setting": "[2]", "result": 0.125},
      {"measurement": "glycan array binding signal (z-score)", "setting": "[3]", "result": -1.17},
      {"measurement": "glycan array binding signal (z-score)", "setting": "[4]", "result": -0.382},
      {"measurement": "glycan array binding signal (z-score)", "setting": "[5]", "result": 1.16},
      {"measurement": "glycan array binding signal (z-score)", "setting": "[6]", "result": -0.896},
      {"measurement": "glycan array binding signal (z-score)", "setting": "[7]", "result": 2.76},
      {"measurement": "glycan array binding signal (z-score)", "setting": "[8]", "result": -0.709},
      {"measurement": "glycan array binding signal (z-score)", "setting": "[9]", "result": 1.33},
      {"measurement": "glycan array binding signal (z-score)", "setting": "[10]", "result": 1.22},
      {"measurement": "glycan array binding signal (z-score)", "setting": "[11]", "result": -0.02},
      {"measurement": "glycan array binding signal (z-score)", "setting": "[12]", "result": -0.298},
      {"measurement": "glycan array binding signal (z-score)", "setting": "[13]", "result": -0.589},
      {"measurement": "glycan array binding signal (z-score)", "setting": "[14]", "result": 1.26},
      {"measurement": "glycan array binding signal (z-score)", "setting": "[15]", "result": -1.59},
      {"measurement": "glycan array binding signal (z-score)", "setting": "[16]", "result": -0.833},
      {"measurement": "glycan array binding signal (z-score)", "setting": "[17]", "result": -0.021},
      {"measurement": "glycan array binding signal (z-score)", "setting": "[18]", "result": -0.494},
      {"measurement": "glycan array binding signal (z-score)", "setting": "[19]", "result": 1.94},
      {"measurement": "glycan array binding signal (z-score)", "setting": "[20]", "result": -0.286},
      {"measurement": "glycan array binding signal (z-score)", "setting": "[21]", "result": -0.186},
      {"measurement": "glycan array binding signal (z-score)", "setting": "[22]", "result": -1.8},
      {"measurement": "glycan array binding signal (z-score)", "setting": "[23]", "result": 1.15},
      {"measurement": "glycan array binding signal (z-score)", "setting": "[24]", "result": 0.925},
      {"measurement": "glycan array binding signal (z-score)", "setting": "[25]", "result": -0.383},
      {"measurement": "glycan array binding signal (z-score)", "setting": "[26]", "result": -1.21},
      {"measurement": "glycan array binding signal (z-score)", "setting": "[27]", "result": 0.729},
      {"measurement": "glycan array binding signal (z-score)", "setting": "[28]", "result": 0.701},
      {"measurement": "glycan array binding signal (z-score)", "setting": "[29]", "result": 0.493},
      {"measurement": "glycan array binding signal (z-score)", "setting": "[30]", "result": 0.31}
    ]}
  ]
}
